# Source: PubChem BioAssay AID493014 (National Center for Advancing Translational Sciences (NCATS), 2011)
# The other results are listed elsewhere or left out. These are further read-outs of the screen, such as a control signal, another cell line or another target. No call is given for them. Compounds called inactive in the main read-out are mostly missing here. The note in brackets gives the kind of curve behind each potency; many fits are weak.
# Experiment: qHTS Assay to Find Inhibitors of Chronic Active B-Cell Receptor Signaling
# Conditions: ABC-DLBCL IkBa-CBG/CBR reporter, luminescence ratio (green luciferase fused to IkBa over red control in TMD8 lymphoma cells), 4 h
# Outline: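 Cell line TMD8 (human ABC DLBCL), stably expressing tet-inducible CBG68-IkBa fusion and CBR; IMDM/0.5% FBS; cpd up to 46 uM; dox induction, 4 h, 37C/5% CO2; dual luminescence; green/red ratio; MG132 control.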
# [1] = measured here: CBR red luminescence, cell number
# [2] = measured here: IkBa-CBG green luminescence
smiles,measurement,setting,value
CCCCOC(=O)n1c(=O)oc2ccccc21,AC50,[1],"3.26 µM [falling, partial curve]"
COC(=O)[C@@H]1C[C@H]1[C@@H](NP(=O)(c1ccccc1)c1ccccc1)c1ccccc1,AC50,[2],"5.17 µM [falling, partial curve, poor fit]"
CC(Cc1ccccc1)N1Cc2ccccc2C1 (stereo unspecified),AC50,[1],"0.631 µM [rising, partial curve, poor fit]"
CC(C)c1ccc(C2NCc3ccccc3-n3cccc32)cc1 (stereo unspecified),AC50,[1],"10 µM [rising, partial curve, poor fit]"
CC(=O)Nc1ccccc1C(=O)OCc1cccc(F)c1,AC50,[1],"11.2 µM [rising, partial curve, poor fit]"
CN1CCN(c2cc(N3CCCCCC3)c(F)cc2[N+](=O)[O-])CC1,AC50,[1],"0.146 µM [rising, full curve, poor fit]"
CC(C)(C)NC(=O)CN1CCCN(C(=O)COc2ccc(Cl)c3ccccc23)CC1,AC50,[1],"16.4 µM [falling, single point]"
CC(Cc1ccccc1)N1C(=O)c2ccccc2C1=O (stereo unspecified),AC50,[1],"22.4 µM [rising, partial curve, poor fit]"
COC(=O)C1=C(c2ccccc2OCc2ccccc2)C[C@@H]2CC[C@H]1N2C(=O)NCc1ccc([N+](=O)[O-])cc1,AC50,[1],"8.2 µM [falling, partial curve, poor fit]"
CNC(=O)c1cccn(Cc2cccc(C(F)(F)F)c2)c1=O,AC50,[1],"17.8 µM [rising, single point]"
CC1CN(c2ccc([N+](=O)[O-])c(N3CCCCC3)c2)CCN1 (stereo unspecified),AC50,[1],"35.5 µM [falling, single point]"
CCN(CC)c1ccc(CNCCc2ccccc2F)cc1,AC50,[1],"17.8 µM [falling, partial curve, poor fit]"
COc1ccc(-c2noc(=O)n2Cc2ccccc2F)cc1,AC50,[1],"11.2 µM [rising, partial curve, poor fit]"
CCOCCc1c(O)[nH]c(=S)[nH]c1=O,AC50,[1],"5.01 µM [falling, partial curve]"
c1cc2c(cc1[C@H]1OCC3C1CO[C@@H]3c1ccc3c(c1)OCO3)OCO2 (stereo partly specified),AC50,[1],"0.116 µM [rising, full curve]"
CCn1c(O)c(C=Nc2ccc(S(N)(=O)=O)cc2)c(=O)n(CC)c1=S,AC50,[1],"18.4 µM [falling, single point]"
Cc1ccc(NC(=O)CSc2nnc([C@@H](N)Cc3c[nH]c4ccccc34)o2)c(C)c1,AC50,[1],"11.2 µM [falling, partial curve]"
COCCCn1c(N)c(C(=O)NCc2ccco2)c2nc3ccccc3nc21,AC50,[1],"7.08 µM [falling, partial curve, poor fit]"
same,AC50,[2],"1.41 µM [rising, full curve, poor fit]"
Cc1cc(C(=O)OCC(=O)Nc2ccccc2F)c(C)n1C1CC1,AC50,[1],"5.8 µM [falling, partial curve, poor fit]"
C[C@H]1CC[C@@H]2[C@@H](C)[C@H]3[C@H](C[C@H]4[C@@H]5CC=C6C[C@@H](O[C@@H]7O[C@H](CO)[C@H](O)[C@H](O[C@@H]8O[C@H](CO)[C@@H](O)[C@H](O)[C@H]8O)[C@H]7O[C@@H]7O[C@@H](C)[C@H](O)[C@@H](O)[C@H]7O)CC[C@]6(C)[C@H]5CC[C@]34C)N2C1,AC50,[1],"23.1 µM [rising, single point]"
C#CCOc1ccc2c(c1)c(C(C)=O)c(C)n2Cc1ccccc1,AC50,[1],"35.5 µM [falling, single point]"
same,AC50,[2],"35.5 µM [rising, partial curve, poor fit]"
COc1cc(/C=C/c2nc3ccccc3c(=O)n2-c2ccccc2O)ccc1O,AC50,[1],"12.6 µM [falling, partial curve]"
Oc1ccc(CC2CC3CCN2CC3)cc1O (stereo unspecified),AC50,[1],"7.08 µM [rising, partial curve, poor fit]"
C/C(=C\c1ccc(N(C)C)cc1)[N+](=O)[O-],AC50,[1],"35.5 µM [rising, single point]"
same,AC50,[2],"35.5 µM [falling, single point]"
C[n+]1c2ccccc2nc2ccc(NCCO)cc21,AC50,[1],"35.5 µM [falling, single point]"
C=CCn1c(O)c(/C(C)=N/NC(=S)Nc2ccccc2)c(=O)[nH]c1=O,AC50,[1],"35.5 µM [falling, single point]"
C=C1N2CCC(CC2)C1(O)c1ccc(C)cc1 (stereo unspecified),AC50,[1],"3.26 µM [falling, partial curve, poor fit]"
CC1(C)C(C(=O)NN2C(=O)c3ccccc3C2=O)C1(C)C,AC50,[1],"0.0517 µM [rising, full curve, poor fit]"
CCn1c(O)c(/C=N/NC(=O)c2ccccc2)c(=O)n(CC)c1=S,AC50,[1],"1.12 µM [falling, full curve]"
C=C1C(=O)O[C@H]2[C@H]1[C@H](OC(=O)CC(=O)O[C@@H]1C[C@@H](C)[C@@H]3C=CC(=O)[C@@]3(C)[C@H]3OC(=O)C(=C)[C@H]13)C[C@@H](C)[C@H]1C=CC(=O)[C@]12C,AC50,[1],"4.47 µM [falling, partial curve]"
same,AC50,[2],"10 µM [rising, partial curve, poor fit]"
C[C@]12CC(=CO)C(=O)C[C@@H]1CC[C@@H]1[C@@H]2CC[C@@]2(C)[C@H]1CC[C@]2(C)O,AC50,[1],"35.5 µM [falling, single point]"
Cc1ccc(-c2nc(N(C)C3CCN(C)CC3)c3ccccc3n2)cc1,AC50,[1],"25.9 µM [falling, single point]"
COC1=CC(=O)OC(/C=C/c2ccccc2)C1 (stereo unspecified),AC50,[1],"32.6 µM [rising, single point]"
same,AC50,[2],"18.4 µM [rising, single point]"
CC(Cc1ccccc1)[n+]1cc(/N=C(\[O-])N(C)C)on1 (stereo unspecified),AC50,[1],"8.91 µM [rising, partial curve, poor fit]"
Cn1ncnc2c(=O)n(C)c(=O)nc1-2,AC50,[1],"3.55 µM [falling, full curve]"
COc1ccc(CC(=O)N(CCN(C)C)CC2CCCN(Cc3ccccc3F)C2)cc1 (stereo unspecified),AC50,[1],"31.6 µM [falling, single point]"

# Reprinted from the results shown (two entries):
smiles,measurement,setting,value
COc1ccc(-c2noc(=O)n2Cc2ccccc2F)cc1,AC50,[1],"11.2 µM [rising, partial curve, poor fit]"
CCOCCc1c(O)[nH]c(=S)[nH]c1=O,AC50,[1],"5.01 µM [falling, partial curve]"
